Among the data in patent publication US20220119518A1 (KUMHO HT, published 2022) are binding values, retold here.

Chains of the proteins cited; added tags and fusions are not shown. Residues count along the entry.
UniProt P40199, residues 35-320: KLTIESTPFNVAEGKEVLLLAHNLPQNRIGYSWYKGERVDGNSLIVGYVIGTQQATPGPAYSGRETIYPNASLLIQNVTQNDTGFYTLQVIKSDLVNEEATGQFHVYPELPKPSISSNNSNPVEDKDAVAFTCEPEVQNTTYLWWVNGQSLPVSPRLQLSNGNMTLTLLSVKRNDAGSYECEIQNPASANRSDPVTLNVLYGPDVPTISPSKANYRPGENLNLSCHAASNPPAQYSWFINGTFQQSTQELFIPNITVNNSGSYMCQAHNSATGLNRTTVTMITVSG

These are yes or no findings as the source states them, for the method shown. Some results given as binding are weak or reduced against the parent protein; the word gives no strength.

For the experiment, the target named is Antigen CD66c (CEACAM6; Sino Biological, Inc.) (UniProt P40199). Description: ELISA, CEACAM6 coated 100 ng/well. For orientation: ELISA stands for enzyme-linked immunosorbent assay.

B1: recombinant humanized anti-CD66c antibody Protein ID 3007 (Vk7 + VH6) (antibody, human IgG1, V domains shown)
VH: QVQLVQSGAEVKKPGASMKISCKASGYSFTDYTMNWVKQAPGQNLEWIGLINPFHGGTVSNQRFKVKATLTVDVSTNTAYMELSRLRSDDTAVYYCVRGDPVRHYYALAYWGQGTLVTVSS
VL: DIQMTQSPSTLSASVGDRVTITCGASENVYGTLNWYQRKPGKAPKLLIYGATNLADGVPSRFSGSGSGTEYTLTISSLQPDDFATYYCQNVLSAPYTFGGGTKLEIK
notes: also called hu 3007; #43
As to B1, the binding entry was “binds”.

B2: recombinant humanized anti-CD66c antibody Protein ID 3058 (Vk8 + VH11) (antibody, human IgG1, V domains shown)
VH: QVQLVQSGAEVKKPGASVKISCKASGYSFTDYTMHWVKQAPGQNLEWIGLINPFGGSTSYAQKFKGRVTMTRDTSTNTAYMELSRLRSDDTAVYYCVRGDPVRHYYALAYWGQGTLVTVSS
VL: DIQMTQSPSTLSASVGDRVTITCRASENVYGTLNWYQRKPGKAPKLLIYGATNLADGMPSRFSGSGSGTEYTLTISSLQPDDFATYYCQNVLSAPYTFGGGTKLEIK
notes: also called hu 3058; #86
For B2, the binding result was “binds”.

B3: recombinant humanized anti-CD66c antibody Protein ID 2938 (Vk5 + VH7) (antibody, human IgG1, V domains shown)
VH: QVQLVQSGAEVKKPGASMKISCKASGYSFTDYTMNWVRQAPGQGLEWIGLINPFHGGTVSNQRFKVKATLTVDVSTNTAYMELSRLRSDDTAVYYCVRGDPVRHYYALAYWGQGTLVTVSS
VL: DIQMTQSPSTLSASVGDRVTITCGASENVYGTLAWYQRKPGKAPKLLIYGATNLADGVPSRFSGSGSGREYTLTISSLQPDDFATYYCQNVLSAPYTFGGGTKLEIK
notes: also called hu 2938
On to B3, for which the binding entry was “binds”.

B4: recombinant humanized anti-CD66c antibody Protein ID 3043 (Vk8 + VH6) (antibody, V domains shown)
VH: QVQLVQSGAEVKKPGASMKISCKASGYSFTDYTMNWVKQAPGQNLEWIGLINPFHGGTVSNQRFKVKATLTVDVSTNTAYMELSRLRSDDTAVYYCVRGDPVRHYYALAYWGQGTLVTVSS
VL: DIQMTQSPSTLSASVGDRVTITCRASENVYGTLNWYQRKPGKAPKLLIYGATNLADGMPSRFSGSGSGTEYTLTISSLQPDDFATYYCQNVLSAPYTFGGGTKLEIK
notes: also called hu 3043; #71
Consider B4, for which the binding result is on record as “binds”.

B5: recombinant humanized anti-CD66c antibody Protein ID 3019 (Vk7 + VH10) (antibody, human IgG1, V domains shown)
VH: QVQLVQSGAEVKKPGASVKVSCKASGYSFTDYTMNWVKQAPGQNLEWIGLINPFHGGTVSNQRFKVKATMTVDVSTNTAYMELSRLRSDDTAVYYCVRGDPVRHYYALAYWGQGTLVTVSS
VL: DIQMTQSPSTLSASVGDRVTITCGASENVYGTLNWYQRKPGKAPKLLIYGATNLADGVPSRFSGSGSGTEYTLTISSLQPDDFATYYCQNVLSAPYTFGGGTKLEIK
notes: also called hu 3019; #51
As for B5, the binding result is “binds”.
